# From the supplement of paper PMC8728848
# This is one part of the list.
# B1: AT5G17240(42) (Arabidopsis thaliana), Q6NQJ8 (protein)
# chain: MDLEHQTMETFLRWAAEIGISDSIDSSRFRDSCLGHSLSVSDFPDAGGRGLGAARELKKGELVLKVPRKALMTTESIIAKDLKLSDAVNLHNSLSSTQILSVCLLYEMSKEKKSFWYPYLFHIPRDYDLLATFGNFEKQALQVEDAVWATEKATAKCQSEWKEAGSLMKELELKPKFRSFQAWLWASATISSRTLHVPWDSAGCLCPVGDLFNYDAPGDYSNTPQGPESANNVEEAGLVVETHSERLTDGGFEEDVNAYCLYARRNYQLGEQVLLCYGTYTNLELLEHYGFMLEENSNDKVFIPLETSLFSLASSWPKDSLYIHQDGKLSFALISTLRLWLIPQSQRDKSVMRLVYAGSQISVKNEILVMKWMSEKCGSVLRDLPTSVTEDTVLLHNIDKLQDPELRLEQKETEAFGSEVRAFLDANCLWDVTVLSGKPIEFSRKTSRMLSKWRWSVQWRLSYKRTLADCISYCNEKMNNLLGTQDRLRDL
# Assays:
# Test in all cases: glycan array binding signal (z-score within array); higher = stronger binding
# Conditions in all cases: glycan notation: IUPAC condensed, linker removed
# Neu5Ac(a2-3)Gal = molecular target: Neu5Ac(a2-3)Gal
# In short: (§1)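 Glycan array data were curated from 3228 arrays in the Consortium for Functional Glycomics database and kept only where the protein sequence was available. Glycan names were converted to IUPAC-condensed notation, and columns mapping to the same glycan were averaged. The binding signal is a within-array Z-score, averaged across arrays of the same protein sequence at different concentrations or buffers and across linkers. Negative Z-scores can be read as non-binding.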
# [1] = molecular target: Neu5Ac(a2-3)Gal(b1-3)GalNAc
# In short: as §1
# [2] = molecular target: Neu5Ac(a2-3)Gal(b1-3)GalNAc(b1-3)Gal(a1-4)Gal(b1-4)Glc
# In short: as §1
# [3] = molecular target: Neu5Ac(a2-3)Gal(b1-3)GalNAc(b1-4)[Neu5Ac(a2-3)]Gal(b1-4)Glc
# In short: as §1
# [4] = molecular target: Neu5Ac(a2-3)Gal(b1-3)GalNAc(b1-4)[Neu5Ac(a2-8)Neu5Ac(a2-3)]Gal(b1-4)Glc
# In short: as §1
# [5] = molecular target: Neu5Ac(a2-3)Gal(b1-3)GalNAc6S
# In short: as §1
# [6] = molecular target: Neu5Ac(a2-3)Gal(b1-3)GlcNAc
# In short: as §1
# [7] = molecular target: Neu5Ac(a2-3)Gal(b1-3)GlcNAc(b1-2)Man
# In short: as §1
# [8] = molecular target: Neu5Ac(a2-3)Gal(b1-3)GlcNAc(b1-2)Man(a1-3)[GlcNAc(b1-4)][Neu5Ac(a2-3)Gal(b1-3)GlcNAc(b1-2)Man(a1-6)]Man(b1-4)GlcNAc(b1-4)GlcNAc
# In short: as §1
# [9] = molecular target: Neu5Ac(a2-3)Gal(b1-3)GlcNAc(b1-2)Man(a1-3)[Neu5Ac(a2-3)Gal(b1-3)GlcNAc(b1-2)Man(a1-6)]Man(b1-4)GlcNAc(b1-4)GlcNAc
# In short: as §1
# [10] = molecular target: Neu5Ac(a2-3)Gal(b1-3)GlcNAc(b1-3)Gal(b1-3)GlcNAc
# In short: as §1
# [11] = molecular target: Neu5Ac(a2-3)Gal(b1-3)GlcNAc(b1-3)Gal(b1-4)GlcNAc
# In short: as §1
# [12] = molecular target: Neu5Ac(a2-3)Gal(b1-3)GlcNAc(b1-3)GalNAc
# In short: as §1
# [13] = molecular target: Neu5Ac(a2-3)Gal(b1-3)GlcNAc(b1-4)Gal(b1-4)Glc
# In short: as §1
# [14] = molecular target: Neu5Ac(a2-3)Gal(b1-3)GlcNAc(b1-6)GalNAc
# In short: as §1
# [15] = molecular target: Neu5Ac(a2-3)Gal(b1-3)GlcNAc6S
# In short: as §1
# [16] = molecular target: Neu5Ac(a2-3)Gal(b1-3)[Fuc(a1-4)]GlcNAc
# In short: as §1
# [17] = molecular target: Neu5Ac(a2-3)Gal(b1-3)[Fuc(a1-4)]GlcNAc(b1-3)Gal(b1-3)[Fuc(a1-4)]GlcNAc
# In short: as §1
# [18] = molecular target: Neu5Ac(a2-3)Gal(b1-3)[Fuc(a1-4)]GlcNAc(b1-3)Gal(b1-4)[Fuc(a1-3)]GlcNAc
# In short: as §1
# [19] = molecular target: Neu5Ac(a2-3)Gal(b1-3)[GlcNAc(b1-6)]GalNAc
# In short: as §1
# [20] = molecular target: Neu5Ac(a2-3)Gal(b1-3)[Neu5Ac(a2-6)]GalNAc
# In short: as §1
# [21] = molecular target: Neu5Ac(a2-3)Gal(b1-3)[Neu5Ac(a2-6)]GlcNAc(b1-3)[Fuc(a1-3)[Gal(b1-4)]GlcNAc(b1-6)]Gal(b1-4)Glc
# In short: as §1
# [22] = molecular target: Neu5Ac(a2-3)Gal(b1-3)]Neu5Ac(a2-3)Gal(b1-4)]GlcNAc
# In short: as §1
# Neu5Ac(a2-3)Gal(b1-4)Glc = molecular target: Neu5Ac(a2-3)Gal(b1-4)Glc
# In short: as §1
# [23] = molecular target: Neu5Ac(a2-3)Gal(b1-4)GlcNAc
# In short: as §1
# [24] = molecular target: Neu5Ac(a2-3)Gal(b1-4)GlcNAc(b1-2)Man
# In short: as §1
# [25] = molecular target: Neu5Ac(a2-3)Gal(b1-4)GlcNAc(b1-2)Man(a1-3)[GlcNAc(b1-4)][Neu5Ac(a2-3)Gal(b1-4)GlcNAc(b1-2)Man(a1-6)]Man(b1-4)GlcNAc(b1-4)GlcNAc
# In short: as §1
# [26] = molecular target: Neu5Ac(a2-3)Gal(b1-4)GlcNAc(b1-2)Man(a1-3)[Neu5Ac(a2-3)Gal(b1-4)GlcNAc(b1-2)Man(a1-6)]Man(b1-4)GlcNAc(b1-4)GlcNAc
# In short: as §1
# [27] = molecular target: Neu5Ac(a2-3)Gal(b1-4)GlcNAc(b1-2)Man(a1-3)[Neu5Ac(a2-3)Gal(b1-4)GlcNAc(b1-2)Man(a1-6)]Man(b1-4)GlcNAc(b1-4)[Fuc(a1-6)]GlcNAc
# In short: as §1
# [28] = molecular target: Neu5Ac(a2-3)Gal(b1-4)GlcNAc(b1-2)Man(a1-3)[Neu5Ac(a2-6)Gal(b1-4)GlcNAc(b1-2)Man(a1-6)]Man(b1-4)GlcNAc(b1-4)GlcNAc
# In short: as §1
# [29] = molecular target: Neu5Ac(a2-3)Gal(b1-4)GlcNAc(b1-2)[Neu5Ac(a2-3)Gal(b1-4)GlcNAc(b1-4)]Man(a1-3)[GlcNAc(b1-4)][Neu5Ac(a2-3)Gal(b1-4)GlcNAc(b1-2)[Neu5Ac(a2-3)Gal(b1-4)GlcNAc(b1-6)]Man(a1-6)]Man(b1-4)GlcNAc(b1-4)GlcNAc
# In short: as §1
# [30] = molecular target: Neu5Ac(a2-3)Gal(b1-4)GlcNAc(b1-2)[Neu5Ac(a2-3)Gal(b1-4)GlcNAc(b1-4)]Man(a1-3)[GlcNAc(b1-4)][Neu5Ac(a2-3)Gal(b1-4)GlcNAc(b1-4)Man(a1-6)]Man(b1-4)GlcNAc(b1-4)GlcNAc
# In short: as §1
# [31] = molecular target: Neu5Ac(a2-3)Gal(b1-4)GlcNAc(b1-2)[Neu5Ac(a2-3)Gal(b1-4)GlcNAc(b1-6)]Man(a1-6)[Neu5Ac(a2-3)Gal(b1-4)GlcNAc(b1-2)Man(a1-3)]Man(b1-4)GlcNAc(b1-4)GlcNAc
# In short: as §1
# [32] = molecular target: Neu5Ac(a2-3)Gal(b1-4)GlcNAc(b1-2)[Neu5Ac(a2-3)Gal(b1-4)GlcNAc(b1-6)]Man(a1-6)[Neu5Ac(a2-3)Gal(b1-4)GlcNAc(b1-2)Man(a1-3)][GlcNAc(b1-4)]Man(b1-4)GlcNAc(b1-4)GlcNAc
# In short: as §1
# [33] = molecular target: Neu5Ac(a2-3)Gal(b1-4)GlcNAc(b1-3)Gal
# In short: as §1
# [34] = molecular target: Neu5Ac(a2-3)Gal(b1-4)GlcNAc(b1-3)Gal(b1-3)GlcNAc
# In short: as §1
# [35] = molecular target: Neu5Ac(a2-3)Gal(b1-4)GlcNAc(b1-3)Gal(b1-4)GlcNAc
# In short: as §1
# [36] = molecular target: Neu5Ac(a2-3)Gal(b1-4)GlcNAc(b1-3)Gal(b1-4)GlcNAc(b1-2)Man(a1-3)[Neu5Ac(a2-3)Gal(b1-4)GlcNAc(b1-3)Gal(b1-4)GlcNAc(b1-2)Man(a1-6)]Man(b1-4)GlcNAc(b1-4)GlcNAc
# In short: as §1
# [37] = molecular target: Neu5Ac(a2-3)Gal(b1-4)GlcNAc(b1-3)Gal(b1-4)GlcNAc(b1-3)Gal(b1-4)GlcNAc
# In short: as §1
# [38] = molecular target: Neu5Ac(a2-3)Gal(b1-4)GlcNAc(b1-3)Gal(b1-4)GlcNAc(b1-3)Gal(b1-4)GlcNAc(b1-2)Man(a1-3)[Neu5Ac(a2-3)Gal(b1-4)GlcNAc(b1-3)Gal(b1-4)GlcNAc(b1-3)Gal(b1-4)GlcNAc(b1-2)Man(a1-6)]GalNAc
# In short: as §1
# [39] = molecular target: Neu5Ac(a2-3)Gal(b1-4)GlcNAc(b1-3)Gal(b1-4)GlcNAc(b1-3)GalNAc
# In short: as §1
# [40] = molecular target: Neu5Ac(a2-3)Gal(b1-4)GlcNAc(b1-3)Gal(b1-4)GlcNAc(b1-3)[Neu5Ac(a2-3)Gal(b1-4)GlcNAc(b1-3)Gal(b1-4)GlcNAc(b1-6)]GalNAc
# In short: as §1
# [41] = molecular target: Neu5Ac(a2-3)Gal(b1-4)GlcNAc(b1-3)Gal(b1-4)GlcNAc(b1-6)[Gal(b1-3)]GalNAc
# In short: as §1
# [42] = molecular target: Neu5Ac(a2-3)Gal(b1-4)GlcNAc(b1-3)Gal(b1-4)[Fuc(a1-3)]GlcNAc
# In short: as §1
# [43] = molecular target: Neu5Ac(a2-3)Gal(b1-4)GlcNAc(b1-3)GalNAc
# In short: as §1
binder,measurement,setting,value
B1,glycan array binding signal (z-score),Neu5Ac(a2-3)Gal,-0.622
same,glycan array binding signal (z-score),[1],-0.438
same,glycan array binding signal (z-score),[2],-0.209
same,glycan array binding signal (z-score),[3],-0.579
same,glycan array binding signal (z-score),[4],-0.186
same,glycan array binding signal (z-score),[5],-0.501
same,glycan array binding signal (z-score),[6],-0.126
same,glycan array binding signal (z-score),[7],-0.503
same,glycan array binding signal (z-score),[8],-0.091
same,glycan array binding signal (z-score),[9],0.064
same,glycan array binding signal (z-score),[10],-0.399
same,glycan array binding signal (z-score),[11],0.844
same,glycan array binding signal (z-score),[12],-0.424
same,glycan array binding signal (z-score),[13],-0.677
same,glycan array binding signal (z-score),[14],-0.124
same,glycan array binding signal (z-score),[15],-0.439
same,glycan array binding signal (z-score),[16],-0.652
same,glycan array binding signal (z-score),[17],-0.045
same,glycan array binding signal (z-score),[18],-0.202
same,glycan array binding signal (z-score),[19],-0.699
same,glycan array binding signal (z-score),[20],-0.27
same,glycan array binding signal (z-score),[21],-0.411
same,glycan array binding signal (z-score),[22],-0.694
same,glycan array binding signal (z-score),Neu5Ac(a2-3)Gal(b1-4)Glc,-0.147
same,glycan array binding signal (z-score),[23],-0.307
same,glycan array binding signal (z-score),[24],-0.365
same,glycan array binding signal (z-score),[25],0.141
same,glycan array binding signal (z-score),[26],-0.387
same,glycan array binding signal (z-score),[27],-0.389
same,glycan array binding signal (z-score),[28],-0.207
same,glycan array binding signal (z-score),[29],-0.496
same,glycan array binding signal (z-score),[30],0.141
same,glycan array binding signal (z-score),[31],-0.069
same,glycan array binding signal (z-score),[32],0.236
same,glycan array binding signal (z-score),[33],-0.368
same,glycan array binding signal (z-score),[34],-0.677
same,glycan array binding signal (z-score),[35],-0.958
same,glycan array binding signal (z-score),[36],-0.521
same,glycan array binding signal (z-score),[37],0.104
same,glycan array binding signal (z-score),[38],2.21
same,glycan array binding signal (z-score),[39],-0.577
same,glycan array binding signal (z-score),[40],-0.237
same,glycan array binding signal (z-score),[41],-0.614
same,glycan array binding signal (z-score),[42],0.084
same,glycan array binding signal (z-score),[43],-0.618

# Reformatted: entries from further up.
binder | measurement | setting | value
B1 | glycan array binding signal (z-score) | [14] | -0.124
same | glycan array binding signal (z-score) | [15] | -0.439
same | glycan array binding signal (z-score) | [16] | -0.652
same | glycan array binding signal (z-score) | [17] | -0.045
same | glycan array binding signal (z-score) | [18] | -0.202
same | glycan array binding signal (z-score) | [19] | -0.699
same | glycan array binding signal (z-score) | [20] | -0.27
same | glycan array binding signal (z-score) | [21] | -0.411
same | glycan array binding signal (z-score) | [22] | -0.694
same | glycan array binding signal (z-score) | Neu5Ac(a2-3)Gal(b1-4)Glc | -0.147
same | glycan array binding signal (z-score) | [23] | -0.307
same | glycan array binding signal (z-score) | [24] | -0.365
